This is an account of results in the supplement of paper PMC8728848.

What all share (test): glycan array binding signal (z-score within array); higher = stronger binding
Conditions in all cases: glycan notation: IUPAC condensed, linker removed

The target in one assay is GlcNAc(b1-3)Gal(b1-4)Glc. The gist of the method: (§1)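 From the Consortium for Functional Glycomics database, 3228 arrays were curated, keeping only those whose protein sequence was available. Binding is given as a within-array Z-score averaged across arrays sharing a protein sequence and across linkers. Negative Z-scores can be read as non-binding.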
Assay [1] deals with GlcNAc(b1-3)Gal(b1-4)GlcNAc. The gist of the method:
as §1

In assay [2] the target is GlcNAc(b1-3)Gal(b1-4)GlcNAc(b1-2)Man(a1-3)[GlcNAc(b1-3)Gal(b1-4)GlcNAc(b1-2)Man(a1-6)]Man(b1-4)GlcNAc(b1-4)GlcNAc. The gist of the method: as §1
In assay [3] the target is GlcNAc(b1-3)Gal(b1-4)GlcNAc(b1-2)Man(a1-3)[GlcNAc(b1-3)Gal(b1-4)GlcNAc(b1-2)Man(a1-6)]Man(b1-4)GlcNAc(b1-4)[Fuc(a1-6)]GlcNAc. The gist of the method:
as §1

Assay [4] has as its target GlcNAc(b1-3)Gal(b1-4)GlcNAc(b1-2)[GlcNAc(b1-3)Gal(b1-4)GlcNAc(b1-6)]Man(a1-6)[GlcNAc(b1-3)Gal(b1-4)GlcNAc(b1-2)Man(a1-3)]Man(b1-4)GlcNAc(b1-4)GlcNAc. The gist of the method:
as §1

The target of assay [5] is GlcNAc(b1-3)Gal(b1-4)GlcNAc(b1-3)Gal(b1-4)GlcNAc. The gist of the method:
as §1

Assay [6] addresses GlcNAc(b1-3)Gal(b1-4)GlcNAc(b1-3)Gal(b1-4)GlcNAc(b1-2)Man(a1-3)[GlcNAc(b1-3)Gal(b1-4)GlcNAc(b1-3)Gal(b1-4)GlcNAc(b1-2)Man(a1-6)]Man(b1-4)GlcNAc(b1-4)GlcNAc. A digest of the protocol: as §1
For assay [7], the target named is GlcNAc(b1-3)Gal(b1-4)GlcNAc(b1-3)Gal(b1-4)GlcNAc(b1-2)Man(a1-3)[GlcNAc(b1-3)Gal(b1-4)GlcNAc(b1-3)Gal(b1-4)GlcNAc(b1-2)Man(a1-6)]Man(b1-4)GlcNAc(b1-4)[Fuc(a1-6)]GlcNAc. The gist of the method: as §1
In assay [8] the target is GlcNAc(b1-3)Gal(b1-4)GlcNAc(b1-3)Gal(b1-4)GlcNAc(b1-2)[GlcNAc(b1-3)Gal(b1-4)GlcNAc(b1-3)Gal(b1-4)GlcNAc(b1-6)]Man(a1-6)[GlcNAc(b1-3)Gal(b1-4)GlcNAc(b1-3)Gal(b1-4)GlcNAc(b1-2)Man(a1-3)]Man(b1-4)GlcNAc(b1-4)[Fuc(a1-6)]GlcNAc. A digest of the protocol:
as §1

Assay [9] concerns the target GlcNAc(b1-3)Gal(b1-4)GlcNAc(b1-3)Gal(b1-4)GlcNAc(b1-3)Gal(b1-4)GlcNAc(b1-2)Man(a1-3)[GlcNAc(b1-3)Gal(b1-4)GlcNAc(b1-3)Gal(b1-4)GlcNAc(b1-3)Gal(b1-4)GlcNAc(b1-2)Man(a1-6)]Man(b1-4)GlcNAc(b1-4)GlcNAc. A digest of the protocol: as §1
Assay [10] has as its target GlcNAc(b1-3)Gal(b1-4)GlcNAc(b1-3)Gal(b1-4)GlcNAc(b1-3)Gal(b1-4)GlcNAc(b1-2)Man(a1-3)[GlcNAc(b1-3)Gal(b1-4)GlcNAc(b1-3)Gal(b1-4)GlcNAc(b1-3)Gal(b1-4)GlcNAc(b1-2)Man(a1-6)]Man(b1-4)GlcNAc(b1-4)[Fuc(a1-6)]GlcNAc. A digest of the protocol: as §1
Assay [11] has as its target GlcNAc(b1-3)Gal(b1-4)GlcNAc(b1-3)Gal(b1-4)GlcNAc(b1-3)Gal(b1-4)GlcNAc(b1-2)[GlcNAc(b1-3)Gal(b1-4)GlcNAc(b1-3)Gal(b1-4)GlcNAc(b1-3)Gal(b1-4)GlcNAc(b1-6)]Man(a1-6)[GlcNAc(b1-3)Gal(b1-4)GlcNAc(b1-3)Gal(b1-4)GlcNAc(b1-3)Gal(b1-4)GlcNAc(b1-2)Man(a1-3)]Man(b1-4)GlcNAc(b1-4)[Fuc(a1-6)]GlcNAc. A digest of the protocol:
as §1

In assay [12] the target is GlcNAc(b1-3)Gal(b1-4)GlcNAc(b1-3)Gal(b1-4)GlcNAc(b1-3)Gal(b1-4)GlcNAc(b1-3)Gal(b1-4)GlcNAc(b1-2)Man(a1-3)[GlcNAc(b1-3)Gal(b1-4)GlcNAc(b1-3)Gal(b1-4)GlcNAc(b1-3)Gal(b1-4)GlcNAc(b1-3)Gal(b1-4)GlcNAc(b1-2)Man(a1-6)]Man(b1-4)GlcNAc(b1-4)GlcNAc. The gist of the method:
as §1

Assay [13] deals with GlcNAc(b1-3)Gal(b1-4)GlcNAc(b1-3)Gal(b1-4)GlcNAc(b1-3)Gal(b1-4)GlcNAc(b1-3)Gal(b1-4)GlcNAc(b1-2)Man(a1-3)[GlcNAc(b1-3)Gal(b1-4)GlcNAc(b1-3)Gal(b1-4)GlcNAc(b1-3)Gal(b1-4)GlcNAc(b1-3)Gal(b1-4)GlcNAc(b1-2)Man(a1-6)]Man(b1-4)GlcNAc(b1-4)[Fuc(a1-6)]GlcNAc. A digest of the protocol: as §1
Assay [14] addresses GlcNAc(b1-3)Gal(b1-4)GlcNAc(b1-3)Gal(b1-4)GlcNAc(b1-3)Gal(b1-4)GlcNAc(b1-3)Gal(b1-4)GlcNAc(b1-2)[GlcNAc(b1-3)Gal(b1-4)GlcNAc(b1-3)Gal(b1-4)GlcNAc(b1-3)Gal(b1-4)GlcNAc(b1-3)Gal(b1-4)GlcNAc(b1-6)]Man(a1-6)[GlcNAc(b1-3)Gal(b1-4)GlcNAc(b1-3)Gal(b1-4)GlcNAc(b1-3)Gal(b1-4)GlcNAc(b1-3)Gal(b1-4)GlcNAc(b1-2)Man(a1-3)]Man(b1-4)GlcNAc(b1-4)[Fuc(a1-6)]GlcNAc. The gist of the method:
as §1

Assay [15] concerns the target GlcNAc(b1-3)Gal(b1-4)GlcNAc(b1-3)Gal(b1-4)GlcNAc(b1-3)GalNAc. A digest of the protocol:
as §1

In assay [16] the target is GlcNAc(b1-3)Gal(b1-4)GlcNAc(b1-3)GalNAc. The gist of the method:
as §1

For assay [17], the target named is GlcNAc(b1-3)Gal(b1-4)GlcNAc(b1-3)[GlcNAc(b1-3)Gal(b1-4)GlcNAc(b1-3)]GalNAc. A digest of the protocol: as §1
Assay [18] has as its target GlcNAc(b1-3)Gal(b1-4)GlcNAc(b1-6)[Gal(b1-3)]GalNAc. The gist of the method:
as §1

The target of assay [19] is GlcNAc(b1-3)Gal(b1-4)GlcNAc(b1-6)[GlcNAc(b1-3)Gal(b1-3)]GalNAc. The gist of the method:
as §1

Assay [20] deals with GlcNAc(b1-3)Gal(b1-4)GlcNAc(b1-6)[GlcNAc(b1-3)]Gal(b1-4)GlcNAc. A digest of the protocol: as §1
For another assay, the target named is GlcNAc(b1-3)GalNAc. A digest of the protocol:
as §1

This is one part of the list.

B1: FimA (Actinomyces oris) (protein)
chain: MHHHHHHSSGVDLGTENLYFQSNAETPNYGNIKTDATGSLVIHKHLTGGGKDIGTPTGTAQNADDKGPAVEGVVFTAYPITDINLKDPAGWDTISNLSRTGVPDSACANPAAPTLGAHQFGTPKVSPATTKEGLATITEMPVQAYLVCETTTPGDIVQKAKPFVVTIPHPNTAAGADGQWIYDVNVYPKNEAIDVDKTIQAQKLNGYGVGSLIKFPVESTAPTLDAKSFYKYFQLKDTLDERLSEVTATDVSLEGTPLQPTDYKVETKQQTVTVTFTAEGLKKIKAAPGKKVSAVFQGKVTKAGNGAITNRAQVISDTLYAEQPPTPETPPTDPENPPTSDEVISRWGDLSIKKVDTHQQGQTKAGLQGAQFQLYKAKNAYANTCSNEKEGAPIAINGQTTLTTDAQGAIDIKGLFISDSIDGADRDNQVNAMERCYVLVETKAPAGYVLPAGNGAATPVKVKAGEETTDNVTVENTKQSVPGLPLTG
In the case of B1, the “glycan array binding signal (z-score)” value in the assay with GlcNAc(b1-3)Gal(b1-4)Glc was -0.311; in assay [1], -0.211; in assay [2] it was -0.593; in [3], 0.128; in assay [4] it was -0.217; in assay [5], -0.236. The “glycan array binding signal (z-score)” value in assay [6] is 0.437; in assay [7], 1.07; in assay [8], -0.212; in assay [9], 0.321; in [10], 0.48; in [11] it was 0.157. For the same molecule, the “glycan array binding signal (z-score)” value in [12] is -0.06; in assay [13], 1.87; in assay [14] it was 0.569; in assay [15], 2.33; in assay [16], 0.232; in assay [17], 0.464. Further, the “glycan array binding signal (z-score)” value in assay [18] is 1.54; in assay [19], -0.372; in assay [20] it was 1.32; with GlcNAc(b1-3)GalNAc, -0.267.
